PubChem BioAssay AID1259308, NCATS – 2017

Aim: 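Genes whose loss raises luciferase production in HEK293 cells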 (primary screen)
Cell system: human HEK293 embryonic kidney cells stably expressing firefly luciferase (HEK-CMV-Luc2-Hygro)
Reagents: single siRNA against human genes, 0.8 pmol siRNA per well
Time to read-out: 72 h
Detection: 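Reporter luminescence and viable-cell signal on separate replicate plates, given as percent of non-targeting control and median/MAD z-scores, plus per-cell luciferase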
Reading the numbers: total luciferase, z-score: higher = more reporter protein produced
Rule for the call: 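Active when the median/MAD z-score for overall luciferase is greater than 3; a gene was taken forward for validation with new siRNAs if at least two of its three siRNAs passed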
Meaning of the calls: active = raised luciferase; inactive = no rise
Here is one part, drawn at random, of about 59,000 deposited reagents. About 1,510 of all reagents (2.6%) were called active. 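Calls use total luciferase alone and ignore viability, so some active siRNAs may act by altering cell number.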 The numbers tell different reagents against one gene apart. Not all columns of the deposit are shown.

total luciferase, z-score, by gene and reagent
KCNIP2: #1 2.48 inactive; #2 0.698 inactive; #3 -0.169 inactive
CLEC3B: #1 0.197 inactive; #2 -0.955 inactive; #3 0.567 inactive
VPS26C: #1 1.42 inactive; #2 0.506 inactive; #3 2.56 inactive
APEH: #1 0.992 inactive; #2 -2.11 inactive; #3 -1.13 inactive
DLG2: #1 0.4 inactive; #2 -0.686 inactive; #3 -2.14 inactive
HCK: #1 1.45 inactive; #2 -0.595 inactive; #3 -0.146 inactive
NHSL1: #1 0.499 inactive; #2 -0.988 inactive; #3 -0.861 inactive
MCM5: #1 4.2 active; #2 0.595 inactive; #3 0.2 inactive
COL5A3: #1 -2.13 inactive; #2 0.288 inactive; #3 1.26 inactive
PPP3R2: #1 0.254 inactive; #2 -0.203 inactive; #3 0.363 inactive
TRIM2: #1 -0.183 inactive; #2 -0.242 inactive; #3 0.00771 inactive
WDR90: #1 0.842 inactive; #2 0.0698 inactive; #3 1.01 inactive
IQSEC3P3: #1 0.792 inactive; #2 -0.521 inactive; #3 -0.693 inactive
SNN: #1 0.14 inactive; #2 0.661 inactive; #3 1.17 inactive
NPFFR1: #1 0.0737 inactive; #2 -1.53 inactive; #3 -1.64 inactive
CCDC17: #1 -1.56 inactive; #2 3.79 active; #3 0.00142 inactive
PDE2A: #1 -1.2 inactive; #2 -1.73 inactive; #3 0.749 inactive
METTL15: #1 -1.21 inactive; #2 0.785 inactive; #3 -0.228 inactive
RC3H2: #1 -0.328 inactive; #2 0.0546 inactive; #3 0.686 inactive
INTU: #1 0.86 inactive; #2 0.582 inactive; #3 0.601 inactive
FOXO1: #1 -0.00929 inactive; #2 1.41 inactive; #3 1.33 inactive
SLC43A2: #1 -0.282 inactive; #2 0.963 inactive; #3 -1.33 inactive
MOGAT1: #1 -0.252 inactive; #2 -2.43 inactive; #3 0.555 inactive
PDE1C: #1 -1.19 inactive; #2 -0.305 inactive; #3 -0.708 inactive
LOC646736: #1 1.06 inactive; #2 3.47 active; #3 -2.71 inactive
